Assay results as given in patent US20180236011A1, “METHODS TO ENHANCE TUMOR-TARGETING BY BACTERIA” (priority 2017, published 2018).
At least one compound was matched to its structure with a doubt left.

Tests used:
melanoma PDOX [1] = assay: Confocal microscopy of S. typhimurium A1-R-GFP tumor targeting (fluorescent area); assay type: in vivo, Athymic nu/nu nude mice; details: drug combined with S. typhimurium A1-R
Procedure: GFP-expressing S. typhimurium A1-R bacteria (AntiCancer Inc.,) were grown overnight on LB medium (Fisher Sci., Hanover Park, Ill., USA) and then diluted 1:10 in LB medium. Bacteria were harvested at late-log phase, washed with PBS, and then diluted in PBS. S. typhimurium A1-R was injected intravenously. A total of 5×10^7 CFU S. typhimurium A1-R in 100 μl PBS was administered to each mouse.
(§1) PDOX mouse models were randomized into four groups of 10 mice each: untreated control (n=10); treated with S. typhimurium A1-R (5×10^7 CFU/100 μl, i.v., qw×2, n=10); treated with TEM (25 mg/kg, p.o., qd×14) combined with S. typhimurium A1-R (5×10^7 CFU/[…]., qw×2, n=10); treated with VEM (30 mg/kg, p.o., qd×14) combined with S. typhimurium A1-R (5×10^7CFU/100 μl, i.v., qw×2, n=10). Tumor length and width were measured twice a week. Tumor volume was calculated with the following formula: Tumor volume (mm3)=length (mm)×width (mm)×width (mm)×½. Data are presented as mean±SD. The tumor volume ratio is defined at the tumor volume at any given time point relative to the initial tumor volume.
The FV1000 confocal microscope (Olympus, Tokyo, Japan) was used for high-resolution imaging. Fluorescence images were obtained using the 20×/0.50 UPLAN FLN and 40×/1.3 oil Olympus UPLAN FLN objectives. The tumor fluorescent area was analyzed with UVP software (UVP, Upland, Calif.).

melanoma PDOX [2] = assay: Histological analysis (H&E) of treated PDOX tumors; assay type: in vivo, Athymic nu/nu nude mice; details: each drug combined with S. typhimurium A1-R; much more extensive than S. typhimurium A1-R
Procedure: as §1
Fresh tumor samples were fixed in 10% formalin and embedded in paraffin before sectioning and staining. Tissue sections (5 μm) were deparaffinized in xylene and rehydrated in an ethanol series. Hematoxylin and eosin (H&E) staining was performed according to standard protocols. Histological examination was performed with a BHS System Microscope (Olympus Corporation, Tokyo, Japan). Images were acquired with INFINITY ANALYZE software (Lumenera Corporation, Ottawa, Canada).

SMILES: CCCS(=O)(=O)Nc1ccc(F)c(C(=O)c2c[nH]c3ncc(-c4ccc(Cl)cc4)cc23)c1F [VEM, vemurafenib]
- S. typhimurium A1-R tumor targeting / accumulation (melanoma PDOX [1]; elevated accumulation leading to extensive tumor necrosis): promoted S. typhimurium A1-R tumor targeting
- S. typhimurium A1-R-GFP fluorescent area compared to S. typhimurium A1-R alone (melanoma PDOX [1]; p<0.01): significantly increase
- tumor necrosis (histology) (melanoma PDOX [2]): extensive necrosis
